Laboratory results as given in article PMC8755797.

Sequences of proteins named here, by UniProt entry; tags and fusion partners are left off. A change or cut given only in a name is not applied to a line headed by its entry. Residues count along the entry.
UniProt F4IDH5: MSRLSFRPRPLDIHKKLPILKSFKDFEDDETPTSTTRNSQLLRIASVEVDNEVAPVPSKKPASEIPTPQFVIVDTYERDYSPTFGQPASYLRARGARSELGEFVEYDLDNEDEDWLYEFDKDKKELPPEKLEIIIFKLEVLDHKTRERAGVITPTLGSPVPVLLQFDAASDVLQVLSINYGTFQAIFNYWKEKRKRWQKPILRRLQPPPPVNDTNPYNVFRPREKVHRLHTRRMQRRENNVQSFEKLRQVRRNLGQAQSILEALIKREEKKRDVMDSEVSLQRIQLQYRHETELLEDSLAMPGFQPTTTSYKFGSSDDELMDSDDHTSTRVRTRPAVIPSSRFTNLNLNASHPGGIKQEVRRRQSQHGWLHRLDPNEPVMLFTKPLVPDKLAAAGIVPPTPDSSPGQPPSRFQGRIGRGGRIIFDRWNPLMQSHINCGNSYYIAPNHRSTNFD
UniProt Q9LXD7: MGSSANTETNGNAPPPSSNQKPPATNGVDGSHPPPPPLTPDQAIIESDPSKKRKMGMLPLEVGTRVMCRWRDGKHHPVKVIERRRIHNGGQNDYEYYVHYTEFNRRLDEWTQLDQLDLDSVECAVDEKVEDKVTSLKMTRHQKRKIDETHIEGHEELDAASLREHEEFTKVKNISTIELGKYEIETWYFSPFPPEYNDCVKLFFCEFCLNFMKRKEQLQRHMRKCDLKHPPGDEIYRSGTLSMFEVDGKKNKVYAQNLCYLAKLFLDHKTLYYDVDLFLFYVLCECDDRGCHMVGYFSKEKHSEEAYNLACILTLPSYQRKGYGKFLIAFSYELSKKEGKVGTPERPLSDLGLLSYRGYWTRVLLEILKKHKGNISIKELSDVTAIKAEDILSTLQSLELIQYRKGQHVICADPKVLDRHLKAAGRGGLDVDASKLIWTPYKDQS
UniProt Q93YZ7, residues 62-491: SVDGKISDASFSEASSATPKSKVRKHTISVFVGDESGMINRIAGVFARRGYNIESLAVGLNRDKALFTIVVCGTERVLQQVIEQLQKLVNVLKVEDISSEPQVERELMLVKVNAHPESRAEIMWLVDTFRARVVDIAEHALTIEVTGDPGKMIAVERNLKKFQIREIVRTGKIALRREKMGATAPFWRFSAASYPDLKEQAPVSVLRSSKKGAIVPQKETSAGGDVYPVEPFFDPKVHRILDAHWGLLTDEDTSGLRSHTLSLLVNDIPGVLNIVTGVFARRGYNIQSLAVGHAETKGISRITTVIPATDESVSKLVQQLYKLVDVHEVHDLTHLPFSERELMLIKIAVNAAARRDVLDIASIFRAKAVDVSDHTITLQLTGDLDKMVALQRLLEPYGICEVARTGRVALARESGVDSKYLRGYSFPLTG
UniProt F4JAM0: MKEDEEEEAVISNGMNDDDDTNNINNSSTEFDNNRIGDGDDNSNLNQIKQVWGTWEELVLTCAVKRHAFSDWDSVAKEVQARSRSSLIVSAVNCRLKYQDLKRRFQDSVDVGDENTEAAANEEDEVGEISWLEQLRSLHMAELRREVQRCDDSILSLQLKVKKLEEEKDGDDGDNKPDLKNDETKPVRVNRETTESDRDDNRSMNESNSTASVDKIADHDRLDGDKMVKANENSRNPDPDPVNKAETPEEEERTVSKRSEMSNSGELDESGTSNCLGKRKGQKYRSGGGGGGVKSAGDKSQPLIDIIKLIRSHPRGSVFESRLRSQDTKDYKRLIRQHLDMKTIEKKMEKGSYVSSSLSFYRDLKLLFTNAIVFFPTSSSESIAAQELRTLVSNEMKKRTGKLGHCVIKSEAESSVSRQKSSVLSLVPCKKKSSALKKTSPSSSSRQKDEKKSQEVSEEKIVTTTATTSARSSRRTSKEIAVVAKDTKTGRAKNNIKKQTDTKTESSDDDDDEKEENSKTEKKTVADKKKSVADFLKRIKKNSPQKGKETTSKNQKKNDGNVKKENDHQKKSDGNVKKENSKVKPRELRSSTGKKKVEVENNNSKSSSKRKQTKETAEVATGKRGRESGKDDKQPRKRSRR
UniProt Q9FH40: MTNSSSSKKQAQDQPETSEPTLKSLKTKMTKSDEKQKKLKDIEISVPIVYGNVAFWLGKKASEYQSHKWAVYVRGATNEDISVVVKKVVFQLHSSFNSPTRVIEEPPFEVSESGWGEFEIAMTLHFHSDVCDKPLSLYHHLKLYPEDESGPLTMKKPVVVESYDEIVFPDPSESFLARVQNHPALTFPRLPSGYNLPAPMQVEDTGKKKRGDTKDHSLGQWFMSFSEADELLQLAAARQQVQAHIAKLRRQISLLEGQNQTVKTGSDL
UniProt F4J7T3: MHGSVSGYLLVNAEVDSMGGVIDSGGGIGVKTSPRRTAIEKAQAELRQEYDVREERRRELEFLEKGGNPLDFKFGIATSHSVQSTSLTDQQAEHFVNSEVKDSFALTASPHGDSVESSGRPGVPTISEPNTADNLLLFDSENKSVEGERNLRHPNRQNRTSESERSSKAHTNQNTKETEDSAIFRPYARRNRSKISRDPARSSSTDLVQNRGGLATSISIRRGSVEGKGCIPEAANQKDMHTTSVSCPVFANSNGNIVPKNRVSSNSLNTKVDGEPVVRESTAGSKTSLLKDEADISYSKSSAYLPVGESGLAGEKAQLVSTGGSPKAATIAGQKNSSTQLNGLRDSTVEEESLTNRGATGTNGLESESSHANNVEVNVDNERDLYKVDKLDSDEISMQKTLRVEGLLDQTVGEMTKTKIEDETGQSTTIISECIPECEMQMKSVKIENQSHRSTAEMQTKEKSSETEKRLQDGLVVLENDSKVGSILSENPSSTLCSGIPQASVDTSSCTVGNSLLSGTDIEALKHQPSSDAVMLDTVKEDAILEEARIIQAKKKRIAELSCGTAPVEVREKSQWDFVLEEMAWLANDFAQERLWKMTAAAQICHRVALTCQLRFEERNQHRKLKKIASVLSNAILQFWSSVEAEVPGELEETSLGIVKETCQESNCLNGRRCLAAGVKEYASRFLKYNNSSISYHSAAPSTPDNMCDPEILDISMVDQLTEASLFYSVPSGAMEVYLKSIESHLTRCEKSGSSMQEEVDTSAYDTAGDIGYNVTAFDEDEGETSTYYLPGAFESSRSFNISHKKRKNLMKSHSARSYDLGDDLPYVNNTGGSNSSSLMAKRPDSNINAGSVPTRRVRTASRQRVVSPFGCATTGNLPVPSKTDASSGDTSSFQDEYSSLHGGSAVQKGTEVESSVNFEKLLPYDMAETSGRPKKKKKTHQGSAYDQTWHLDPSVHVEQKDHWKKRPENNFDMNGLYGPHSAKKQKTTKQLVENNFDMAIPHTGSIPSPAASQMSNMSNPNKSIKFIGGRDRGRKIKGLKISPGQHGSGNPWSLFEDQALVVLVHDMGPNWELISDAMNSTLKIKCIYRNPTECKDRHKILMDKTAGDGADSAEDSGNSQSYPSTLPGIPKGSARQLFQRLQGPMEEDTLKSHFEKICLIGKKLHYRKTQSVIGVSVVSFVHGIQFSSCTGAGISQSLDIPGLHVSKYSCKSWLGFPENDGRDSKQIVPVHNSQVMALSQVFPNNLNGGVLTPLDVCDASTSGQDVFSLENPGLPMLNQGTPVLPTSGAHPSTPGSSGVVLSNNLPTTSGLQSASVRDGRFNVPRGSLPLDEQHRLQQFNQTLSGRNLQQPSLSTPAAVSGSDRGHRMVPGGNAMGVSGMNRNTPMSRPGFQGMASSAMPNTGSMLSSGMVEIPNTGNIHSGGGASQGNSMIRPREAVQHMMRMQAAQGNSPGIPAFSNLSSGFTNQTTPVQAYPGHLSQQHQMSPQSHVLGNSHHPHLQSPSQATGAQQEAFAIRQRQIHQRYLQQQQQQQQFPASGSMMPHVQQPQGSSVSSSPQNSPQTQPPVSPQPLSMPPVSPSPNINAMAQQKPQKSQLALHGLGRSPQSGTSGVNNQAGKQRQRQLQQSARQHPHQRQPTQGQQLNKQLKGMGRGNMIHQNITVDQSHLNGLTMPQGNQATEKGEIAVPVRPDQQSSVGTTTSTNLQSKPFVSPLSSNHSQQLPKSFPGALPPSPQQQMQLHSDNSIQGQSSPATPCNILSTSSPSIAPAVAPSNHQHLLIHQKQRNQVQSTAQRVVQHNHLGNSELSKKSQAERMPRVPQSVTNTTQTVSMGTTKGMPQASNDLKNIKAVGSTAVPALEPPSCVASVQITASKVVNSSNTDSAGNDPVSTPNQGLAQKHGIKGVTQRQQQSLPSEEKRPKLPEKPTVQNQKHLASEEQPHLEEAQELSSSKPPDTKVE
UniProt F4J7T2: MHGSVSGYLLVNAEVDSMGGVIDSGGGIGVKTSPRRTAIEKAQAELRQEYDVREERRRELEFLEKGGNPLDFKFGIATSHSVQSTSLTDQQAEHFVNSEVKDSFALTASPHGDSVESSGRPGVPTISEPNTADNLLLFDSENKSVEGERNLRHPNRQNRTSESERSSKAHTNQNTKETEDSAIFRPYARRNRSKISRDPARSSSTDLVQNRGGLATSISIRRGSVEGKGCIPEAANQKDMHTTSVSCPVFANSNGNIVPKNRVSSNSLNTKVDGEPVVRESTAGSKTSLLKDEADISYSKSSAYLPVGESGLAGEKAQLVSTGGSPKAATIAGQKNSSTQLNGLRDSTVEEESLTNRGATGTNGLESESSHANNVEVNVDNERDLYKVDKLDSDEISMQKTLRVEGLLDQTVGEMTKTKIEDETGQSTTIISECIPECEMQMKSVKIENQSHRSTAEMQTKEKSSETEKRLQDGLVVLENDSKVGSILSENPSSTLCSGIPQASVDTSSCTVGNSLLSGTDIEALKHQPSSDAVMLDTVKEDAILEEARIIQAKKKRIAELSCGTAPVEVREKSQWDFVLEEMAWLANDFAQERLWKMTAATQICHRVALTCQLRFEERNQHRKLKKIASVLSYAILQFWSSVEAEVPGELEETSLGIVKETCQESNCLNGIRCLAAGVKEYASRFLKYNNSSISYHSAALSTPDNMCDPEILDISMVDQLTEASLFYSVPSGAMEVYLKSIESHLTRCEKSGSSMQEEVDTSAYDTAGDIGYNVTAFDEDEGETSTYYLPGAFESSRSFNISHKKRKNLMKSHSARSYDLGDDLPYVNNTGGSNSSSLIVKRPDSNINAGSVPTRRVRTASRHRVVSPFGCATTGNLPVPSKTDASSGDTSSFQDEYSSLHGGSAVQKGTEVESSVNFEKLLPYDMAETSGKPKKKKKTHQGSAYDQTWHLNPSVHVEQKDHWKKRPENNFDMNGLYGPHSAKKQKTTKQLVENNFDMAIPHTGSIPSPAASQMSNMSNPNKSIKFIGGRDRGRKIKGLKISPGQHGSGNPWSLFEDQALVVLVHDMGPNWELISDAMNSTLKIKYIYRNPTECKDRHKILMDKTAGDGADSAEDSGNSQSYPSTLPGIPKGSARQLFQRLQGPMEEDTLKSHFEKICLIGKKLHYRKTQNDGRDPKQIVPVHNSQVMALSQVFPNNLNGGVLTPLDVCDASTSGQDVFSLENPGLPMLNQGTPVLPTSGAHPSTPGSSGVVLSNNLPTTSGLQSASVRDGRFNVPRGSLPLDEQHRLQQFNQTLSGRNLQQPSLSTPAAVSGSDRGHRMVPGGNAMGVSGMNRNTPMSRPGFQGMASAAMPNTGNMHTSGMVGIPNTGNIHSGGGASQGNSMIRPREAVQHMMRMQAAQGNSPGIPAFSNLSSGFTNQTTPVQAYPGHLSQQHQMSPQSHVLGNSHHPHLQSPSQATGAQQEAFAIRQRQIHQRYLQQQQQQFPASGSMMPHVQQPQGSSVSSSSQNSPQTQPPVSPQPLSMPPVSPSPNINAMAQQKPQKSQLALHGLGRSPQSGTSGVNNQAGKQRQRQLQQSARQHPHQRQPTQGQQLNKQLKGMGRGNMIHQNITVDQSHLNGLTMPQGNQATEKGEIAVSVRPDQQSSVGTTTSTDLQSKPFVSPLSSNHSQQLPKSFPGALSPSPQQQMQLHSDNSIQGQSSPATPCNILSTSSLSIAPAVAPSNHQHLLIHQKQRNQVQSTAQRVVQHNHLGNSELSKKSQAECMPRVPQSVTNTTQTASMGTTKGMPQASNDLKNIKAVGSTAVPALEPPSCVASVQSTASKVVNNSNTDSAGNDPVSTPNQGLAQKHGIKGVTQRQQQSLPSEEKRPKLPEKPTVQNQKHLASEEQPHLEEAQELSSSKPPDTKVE

Target: AtEPL1B-TAP (A. thaliana) (UniProt F4IDH5)
Assay: affinity purification with mass spectrometry; tandem affinity purification via the C-terminal GSrhino tag of AtEPL1B from 50 g of 6-day-old hydroponically grown seedlings (Atepl1-1 with pAtEPL1B::AtEPL1B-TAP); on-bead digest, Q Exactive; two experiments

binding | Molecule
binds | HAM2 (from UniProt Q9LXD7 1-445) (enzyme)
binds | AHASS1 (from UniProt Q93YZ7 62-491)
binds | BRD6 (from UniProt F4JAM0)
binds | AtTRA1A (from UniProt F4IPJ1)
binds | AtYAF9A (from UniProt Q9FH40)
binds | AtEAF1A (from UniProt F4J7T3 1-1957)
binds | AtEAF1B (from UniProt F4J7T2 1-1907)
binds | AtARP4 (protein, UniProt Q84M92 1-441) MYGGDEVSAIVVDLGSHTCKAGYAGEDAPKAVFPSVIGAVDGVEAMDVDVDSTKTNSNSEDSKTESEKEKSKRKLYVGSQAMSYRRDHMEVLSPIKDGIVSDWDLVDNIWEHAFKSCLMIDPTEHPMLLAEPPLNTQQQREKAAELMFEKYKVPALFMAKNPVLTSFATGRATSLVVDCGGGSTTISPVHDGYVLQKAVVSSPLGGEFLTDCLLKSLESKGIKIRPRYSFKRKEVRAGEFQVEDVDIPDTTESYKLFCQRMIVGDIKDSICRVPDTPYDDKSYSNIPTTSYELPDGQTLEIGADRFKVPDVMFNPSIVQTIPGMEKYAEMIPSVRGLPHMVMESINKCDVDIRRELYSSILLAGGTSSMQQLKERLEKDLIEESPHSARVKVLASGNTTERRFSVWIGGSILASLGSFQQMWFSKSEYEEHGASYIQRKCP
binds | HAM1 (enzyme, UniProt Q9FLF7 1-445) MGSSADTETAMIIATPASNHNNPATNGGDANQNHTSGAILALTNSESDASKKRRMGVLPLEVGTRVMCQWRDGKYHPVKVIERRKNYNGGHNDYEYYVHYTEFNRRLDEWIKLEQLDLDSVECALDEKVEDKVTSLKMTRHQKRKIDETHVEGHEELDAASLREHEEFTKVKNIATIELGKYEIETWYFSPFPPEYNDCVKLFFCEFCLSFMKRKEQLQRHMRKCDLKHPPGDEIYRSSTLSMFEVDGKKNKVYAQNLCYLAKLFLDHKTLYYDVDLFLFYILCECDDRGCHMVGYFSKEKHSEEAYNLACILTLPPYQRKGYGKFLIAFSYELSKKEGKVGTPERPLSDLGLVSYRGYWTRILLDILKKHKGNISIKELSDMTAIKAEDILSTLQSLELIQYRKGQHVICADPKVLDRHLKAAGRGGLDVDVSKMIWTPYKEQS
binds | UGD1 (protein, UniProt Q9FZE1 1-481) MVKICCIGAGYVGGPTMAVMALKCPEIEVVVVDISEPRINAWNSDRLPIYEPGLEDVVKQCRGKNLFFSTDVEKHVFESDIVFVSVNTPTKTQGLGAGKAADLTYWESAARMIADVSKSSKIVVEKSTVPVRTAEAIEKILTHNSKGIEFQILSNPEFLAEGTAIKDLYNPDRVLIGGRDTAAGQKAIKALRDVYAHWVPVEQIICTNLWSAELSKLAANAFLAQRISSVNAMSALCEATGADVTQVAHAVGTDTRIGPKFLNASVGFGGSCFQKDILNLIYICECNGLPEAANYWKQVVKVNDYQKIRFANRVVSSMFNTVSGKKIAILGFAFKKDTGDTRETPAIDVCNRLVADKAKLSIYDPQVLEEQIRRDLSMARFDWDHPVPLQQIKAEGISEQVNVVSDAYEATKDAHGLCVLTEWDEFKSLDFKKIFDNMQKPAFVFDGRNVVDAVKLREIGFIVYSIGKPLDSWLKDMPAVA
binds | AtSWC4 (protein, UniProt Q8VZL6 1-441) MGGTDAKDILGLPKTPLSLTQEKKSRPQKESHRKPDGISREVYALTGGVAPLMPSIDLKRRPPADEKVAWKWLSFTNSARKDDLQLYHWVRVVNDVPPTGDYSFAKYNKSVDILKYTDEEYENHLTDSVWTKEETDQLFEFCQNFDLRFVVIADRFPVSRTVEELKDRYYSVNRALLRARAQSPADVANHPLMKEPYDITRDRERKRALSMVLSQSRHQEKKDAEILAEAKRITEMRLAARRAEEPDVSANENAGLDKADGVVPGRSVSPTSNSQLPATAVAPSTLTMADYASTLASLRMLHVYLRTYGLEQMVQAASSAVGLRTIKRVEQTLQDLGVNLKPKVPTKTVCDEHLELRKEILTLLNLQKQLQYKESEGSSHREGSYAAMPDTPKDRVFAPDPFSFGAERPIKKEQKRKGPGRQADTPSPAHKRPRKLKASDL
binds | GATB (protein, UniProt Q9FV81 1-550) MSTTLLRTIQLNQFSLLGTSLLRRRRSNNFSVRSCGSQTTTTHEAKQSSPTRVAPKNHKSNQLDEILRDYEAVIGIETHVQLSTLTKAFCSCSNNYGSYPNTSICPVCMGLPGALPVLNSKVVEFGVRLGLALNCDLSLKSKFDRKQYFYPDLPKGYQISQFDIPIASGGYVDVDIPLEFGGGHRRFGITRVHMEEDAGKLLHSDTGDYSQVDLNRAGVPLLEIVSEPDMRSGIEAAEYACEMQRIARYLGVSNGNMQEGSLRCDVNISIRPIGQAEFGTKVEIKNLNAFSAISRAIDFEISRQALLYNQGKADQIVTETRLWEEGAQKTVTMRKKEGLADYRYFPEPDLPEVILTQEYVDSIRASLPELPEAKRRRYEAMGLGMQDVLFLANDVSVAEYFDAVIGKGAEVKLAANWIMSDIAAYLKNEKLSINDIKLTPQELAELIAAIKDGTISGKIGKEILFELLAKGGTVKGMIKAKDLVQITDPAEIEKMVIQVVSENPKQLEQYRSGKTKLQGYFAGQVMKMSKGKANPGLLNKILLEKLNAKD
binds | AtING2 (protein, UniProt B3H615 1-262) MAIARTGVYVDDYLEYASTFPAELQRLLNTVRELDERSQSLINQTRQQTKYCLGLASQSSKKGNGNHYNNGGLDEEETIEKMRKEIESSQENALSLCTEKVLLARQAYDLIDSHVKRLDEDLNNFAEDLKQEGKIPPDEPSVLPPLPIVPKAEKRKSFYGTPQPKKIDYRDRDWDRDRDFELMPPPGSNRKDLMPIEEQPIDPNEPTYCVCHQVSFGDMIACDNENCQGGEWFHYTCVGLTPETRFKGKWYCPTCRLLPQSH
binds | MRG1 (protein, UniProt Q94C32 1-320) MGSSSKEETASDGDTASGGASPSNDGRLFSEGERVLAYHGPRVYGAKVQKVELRKKEWKYFVHYLGWNKNWDEWVSADRLLKHTEENLVKQKALDKKQGVEKGTKSGRSAQTKTRSSADTKADKDDTKTNAAKGKKRKHESGNEKDNVTAEKLMKIQIPASLKKQLTDDWEYIAQKDKVVKLPRSPNVDEILSKYLEFKTKKDGMVTDSVAEILKGIRSYFDKALPVMLLYKKERRQYQESIVDDTSPSTVYGAEHLLRLFVKLPDLFSYVNMEEETWSRMQQTLSDFLKFIQKNQSTFLLPSAYDSDKVSDGKGKGKDD

Results are given in words; binding and its absence hold for the method and conditions named. In cells and extracts the contact can be indirect. A yes stands for co-enrichment or nearness to the bait. Other partners may have been found.
